The exact form of at least one protein or probe is not confirmed. For some of these results: Negatives hold for the conditions tested. For some of these results: Protein sequences can lack the tags named with them.
Experiments:
[1] = target: T1, MBP-TaWRKY13-A (UniProt W5DRW6); experiment: EMSA; conditions: poly-dIdC, competed by 100x and 200x unlabeled probe; EMSA 10 ul: 1 ul binding buffer (composition not given), 0.5 ul poly-dIdC, 0.5 ul glycerol, 0.5 ul 1 M KCl (about 50 mM), 400 ng protein, 4 C 20 min; pH not stated; recombinant protein; label: 5' biotin
T1 sequence (looked up, limits assumed): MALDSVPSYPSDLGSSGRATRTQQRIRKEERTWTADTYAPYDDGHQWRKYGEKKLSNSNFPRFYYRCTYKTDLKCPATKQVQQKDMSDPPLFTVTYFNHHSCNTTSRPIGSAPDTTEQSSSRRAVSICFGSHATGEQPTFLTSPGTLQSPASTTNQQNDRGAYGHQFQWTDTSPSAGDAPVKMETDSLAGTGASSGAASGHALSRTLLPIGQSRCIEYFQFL

[2] = target: MBP (UniProt P0AEX9); experiment: EMSA; conditions: MBP only control; EMSA 10 ul: 1 ul binding buffer (composition not given), 0.5 ul poly-dIdC, 0.5 ul glycerol, 0.5 ul 1 M KCl (about 50 mM), 400 ng protein, 4 C 20 min; pH not stated; recombinant protein; label: 5' biotin

Sequence | binding result [1] | binding result [2]
CCGTCATGGACGCGGGCTGTTGGTCAACGCACGAGAGGAGGCATAAGGAC (double strand) [Probe3 TaLOX6 promoter] | binds | –
CTCTTCCCGGCCAGCTGCTTTGACCCATTTCGTGTCCGGCGATCTTAACC (double strand) [Probe2 TaLOX6 promoter] | binds | –
TCACGGTCAAACACATTATCCTGTCCGAAAAGTGAAAACTAACACAAAACGTCACCGTTTTTCCTTGACTCAG (double strand) [Probe1 AtLOX6 promoter] | binds | no binding

From paper PMC8442999
